The test system of data set [1] is Aureochrome 1a full length (PtAu1afull) (Phaeodactylum tricornutum). As to the kind of experiment: EMSA. As to conditions: EMSA: 50 nM DNA in buffer C (20 mM HEPES pH 7.5, 100 mM NaCl, 10 mM MgCl2, 5% glycerol) plus 5% glycerol, 20 min at RT, dark or blue light (450 nm), recombinant protein, protein details: N-terminal His6 removed by TEV protease.
For data set [2] the test system is unchanged. As to the kind of experiment: gel filtration (SEC) complex for SAXS. The settings on record: complex formed under blue light, 10 mM MgCl2, 1.5-fold molar excess DNA; recombinant protein; protein details: N-terminal His6 removed by TEV protease. A general note: SEC sorts molecules by how far they enter the pores of the column.
Data set [3] concerns Aureochrome 1a bZIP-LOV (PtAu1abZIP-LOV) (Phaeodactylum tricornutum). Briefly: gel filtration (SEC) complex for SAXS. The settings on record: complex formed under blue light, 10 mM MgCl2, 1.5-fold molar excess DNA; recombinant protein; protein details: N-terminal His6 removed by TEV protease.

The exact form of at least one protein or probe is not confirmed. For part of these data: No signal at the amounts used counts as a negative. For part of these data: A weaker result is weaker than the reference pair of the same experiment.

Turning to “AGTGGGTCATTGCAAGTAGTCGAT (double strand) [24-bp random DNA lacking target sequence]”, the binding result is given as “binds more weakly” in data set [1] (blue light, 10 mM MgCl2, weak binding above 5-10 uM protein, label: none (GelRed stain)) and “no binding” in data set [1] (dark, 10 mM MgCl2, label: none (GelRed stain)).

On to “ATAGCGTCTGACGTGGTTCCC / TGGGAACCACGTCAGACGCTA [21-bp dsCYC2 probe with single-nucleotide overhangs]”, for which the binding result in data set [2] and in data set [3] was “binds” throughout.

Consider “GGAGTATCCAGCTCCGTAGCTGACGTGGCCTCTGG (double strand) [35-bp probe of Takahashi et al. 2007]”, for which the binding result is listed as “binds more weakly” in data set [1] (dark, 10 mM MgCl2, stable complex at much higher protein concentrations than without Mg, 388 nM DNA) and “binds” in data set [1] (dark, no MgCl2, complex already at 2 nM protein, second band above 250 nM, 388 nM DNA).

(Values after publication PMC4721966.)
